Data as given in PubChem BioAssay AID1259280 (Sanger Institute, 2017)
This is an unselected part of 794 reagents tested. In the full data, 12 (1.5%) were called active. 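Calls cover knock-down without drug only; synergy scores stand apart, values above 0.15 being treated as synergy.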 Entries without a mark were called inactive. No viability above 1 is reported: the scale is capped. Not all columns of the deposit are shown. No sequences are given here. Not stated in the record: the amount of reagent, the time to read-out.

Purpose: 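Kinome siRNA screen for partners that synergise with BYL719, cetuximab or trametinib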 (primary screen)
System: human SNU407 colorectal cancer cells
Reagent: siRNA pool against human genes
Treatment: anchor drugs BYL719 at 1 µM, cetuximab at 5 µg/ml or trametinib at 10 nM, or DMSO vehicle alone; exposure time not given
Measured: 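Viability per well scaled to a non-targeting pool and averaged over replicates, with a robust z-score from controls and a synergy score per anchor drug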
Scale: viability z-score, no drug and viability vs control, no drug: higher = more cells survive the knock-down
Units: viability vs control, no drug in fraction of control
Active means: 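Essential calls require a no-drug robust viability z-score under -3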
Calls: active = essential (knock-down alone kills cells); inactive = no change without drug

For PFKM [SID56479129] the deposit lists viability z-score, no drug -1.03; viability vs control, no drug 0.852. Against TSKS [SID56479267], the entry reads viability z-score, no drug 0.901; viability vs control, no drug 1. With knock-down of PRKCG [SID56478828] the results were viability z-score, no drug -0.2; viability vs control, no drug 0.916. After knock-down of UCKL1 [SID152149527], the screen gave viability z-score, no drug 0.901; viability vs control, no drug 1. After knock-down of PKIB [SID56479212], the record shows viability z-score, no drug 0.901; viability vs control, no drug 1. For KIT [SID152151885], the values are viability z-score, no drug 0.901; viability vs control, no drug 1.

After knock-down of ITPKA [SID152154114] the results were viability z-score, no drug 0.629; viability vs control, no drug 0.979. EPHA2 [SID135620614] showed viability z-score, no drug 0.758; viability vs control, no drug 0.989. RIOK3 [SID152150051] scored viability z-score, no drug -0.824; viability vs control, no drug 0.868. After knock-down of MAP3K19 [SID135620896] the results were viability z-score, no drug -0.506; viability vs control, no drug 0.893.

Part of the list above in another layout:
gene | PubChem SID | viability z-score, no drug | viability vs control, no drug
UCKL1 | SID152149527 | 0.901 | 1
PKIB | SID56479212 | 0.901 | 1

Further results:
Knock-down of CKMT1B [SID135621236] came out at: viability z-score, no drug 0.0198; viability vs control, no drug 0.933. Depletion of LIMK1 [SID135621436] resulted in: viability z-score, no drug 0.901; viability vs control, no drug 1. Knock-down of HASPIN [SID152153141] gave: viability z-score, no drug 0.285; viability vs control, no drug 0.953. After knock-down of STK11 [SID152153881], the record shows viability z-score, no drug 0.593; viability vs control, no drug 0.976. After knock-down of NTRK1 [SID152154627] the results were viability z-score, no drug -0.3; viability vs control, no drug 0.908. Depletion of STK39 [SID152151246] resulted in: viability z-score, no drug -0.727; viability vs control, no drug 0.876.

For WNK1 [SID152148140], the values are viability z-score, no drug 0.726; viability vs control, no drug 0.987. Silencing of BRWD1 [SID135622024] gave: viability z-score, no drug -0.483; viability vs control, no drug 0.894. Against NUP98 [SID152147776], the values are viability z-score, no drug -3.3 (active); viability vs control, no drug 0.679. Silencing of RBKS [SID56479147] gave: viability z-score, no drug 0.901; viability vs control, no drug 1. ROR2 [SID56478550] showed viability z-score, no drug 0.901; viability vs control, no drug 1. MAPKAPK5 [SID56478947] scored viability z-score, no drug 0.615; viability vs control, no drug 0.978.

Knock-down of ASPM [SID135623115] came out at: viability z-score, no drug -0.21; viability vs control, no drug 0.915. For RYK [SID152147158], the entry reads viability z-score, no drug 0.361; viability vs control, no drug 0.959. For CDKL2 [SID152156267] the deposit lists viability z-score, no drug -0.0283; viability vs control, no drug 0.929. With knock-down of COMMD3 [SID152155344], the screen gave viability z-score, no drug 0.901; viability vs control, no drug 1. Silencing of ROS1 [SID56478551] gave: viability z-score, no drug -0.237; viability vs control, no drug 0.913. With knock-down of EPHA4 [SID152148822] the results were viability z-score, no drug -0.189; viability vs control, no drug 0.917.
